Assay results reported in the supplement of paper PMC10849652.
The other results are listed elsewhere or left out.

By UniProt entry, the sequences of proteins in these tests, tags left out. Where a name states a change or a piece, a line headed by the entry shows the natural chain unless it says otherwise.
UniProt Q9UI09, whole entry, looked up: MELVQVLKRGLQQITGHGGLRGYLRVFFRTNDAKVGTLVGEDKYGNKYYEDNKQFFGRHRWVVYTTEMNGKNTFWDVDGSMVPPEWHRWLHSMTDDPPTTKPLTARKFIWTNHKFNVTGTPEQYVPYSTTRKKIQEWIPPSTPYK
UniProt O94916: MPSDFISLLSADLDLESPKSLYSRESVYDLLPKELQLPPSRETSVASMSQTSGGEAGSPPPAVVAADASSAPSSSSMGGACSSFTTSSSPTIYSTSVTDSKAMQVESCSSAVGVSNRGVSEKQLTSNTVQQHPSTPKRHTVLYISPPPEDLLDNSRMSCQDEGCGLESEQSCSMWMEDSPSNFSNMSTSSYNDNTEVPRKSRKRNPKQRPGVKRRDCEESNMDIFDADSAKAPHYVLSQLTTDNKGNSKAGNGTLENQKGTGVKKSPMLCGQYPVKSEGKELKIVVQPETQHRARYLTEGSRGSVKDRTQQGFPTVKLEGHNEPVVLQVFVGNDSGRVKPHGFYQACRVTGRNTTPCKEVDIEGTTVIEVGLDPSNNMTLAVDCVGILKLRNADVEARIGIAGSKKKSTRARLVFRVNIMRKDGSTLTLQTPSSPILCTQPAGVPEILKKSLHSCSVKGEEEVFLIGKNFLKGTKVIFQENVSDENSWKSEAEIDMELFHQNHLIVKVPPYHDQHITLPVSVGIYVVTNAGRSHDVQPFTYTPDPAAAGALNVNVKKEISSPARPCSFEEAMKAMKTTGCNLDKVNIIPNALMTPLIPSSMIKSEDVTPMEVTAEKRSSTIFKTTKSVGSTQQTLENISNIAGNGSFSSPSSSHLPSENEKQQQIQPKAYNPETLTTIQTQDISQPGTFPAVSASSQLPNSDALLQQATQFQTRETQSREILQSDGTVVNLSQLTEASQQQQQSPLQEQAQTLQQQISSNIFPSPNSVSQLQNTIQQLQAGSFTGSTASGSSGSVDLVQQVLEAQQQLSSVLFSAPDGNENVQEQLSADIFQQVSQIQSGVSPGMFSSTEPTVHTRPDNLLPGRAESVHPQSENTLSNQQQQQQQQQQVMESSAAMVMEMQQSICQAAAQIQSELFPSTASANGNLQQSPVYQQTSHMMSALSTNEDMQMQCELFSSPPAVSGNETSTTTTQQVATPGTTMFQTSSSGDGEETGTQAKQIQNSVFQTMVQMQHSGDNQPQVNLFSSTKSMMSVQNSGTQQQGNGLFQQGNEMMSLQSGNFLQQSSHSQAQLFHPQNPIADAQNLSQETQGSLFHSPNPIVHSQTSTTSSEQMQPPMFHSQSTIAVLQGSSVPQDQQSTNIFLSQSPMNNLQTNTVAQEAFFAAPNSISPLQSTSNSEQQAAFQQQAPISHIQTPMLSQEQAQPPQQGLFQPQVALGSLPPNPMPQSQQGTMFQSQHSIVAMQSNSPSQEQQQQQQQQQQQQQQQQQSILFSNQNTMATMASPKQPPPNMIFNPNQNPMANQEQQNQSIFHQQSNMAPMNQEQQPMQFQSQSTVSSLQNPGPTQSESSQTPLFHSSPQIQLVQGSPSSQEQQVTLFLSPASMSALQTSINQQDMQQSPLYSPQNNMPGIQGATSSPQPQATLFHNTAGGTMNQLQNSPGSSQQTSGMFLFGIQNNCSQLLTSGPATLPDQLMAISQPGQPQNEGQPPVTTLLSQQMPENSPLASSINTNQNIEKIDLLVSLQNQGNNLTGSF
UniProt O43678, whole entry, looked up: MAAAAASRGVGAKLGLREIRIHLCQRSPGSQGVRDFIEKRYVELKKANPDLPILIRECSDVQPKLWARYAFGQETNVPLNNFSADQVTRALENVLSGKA
UniProt Q9P032: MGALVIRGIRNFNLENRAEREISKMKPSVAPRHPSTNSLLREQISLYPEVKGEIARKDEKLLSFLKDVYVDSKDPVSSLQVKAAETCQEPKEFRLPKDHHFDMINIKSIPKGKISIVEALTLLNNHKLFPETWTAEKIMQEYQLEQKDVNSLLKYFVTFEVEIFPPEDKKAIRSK
UniProt O14777: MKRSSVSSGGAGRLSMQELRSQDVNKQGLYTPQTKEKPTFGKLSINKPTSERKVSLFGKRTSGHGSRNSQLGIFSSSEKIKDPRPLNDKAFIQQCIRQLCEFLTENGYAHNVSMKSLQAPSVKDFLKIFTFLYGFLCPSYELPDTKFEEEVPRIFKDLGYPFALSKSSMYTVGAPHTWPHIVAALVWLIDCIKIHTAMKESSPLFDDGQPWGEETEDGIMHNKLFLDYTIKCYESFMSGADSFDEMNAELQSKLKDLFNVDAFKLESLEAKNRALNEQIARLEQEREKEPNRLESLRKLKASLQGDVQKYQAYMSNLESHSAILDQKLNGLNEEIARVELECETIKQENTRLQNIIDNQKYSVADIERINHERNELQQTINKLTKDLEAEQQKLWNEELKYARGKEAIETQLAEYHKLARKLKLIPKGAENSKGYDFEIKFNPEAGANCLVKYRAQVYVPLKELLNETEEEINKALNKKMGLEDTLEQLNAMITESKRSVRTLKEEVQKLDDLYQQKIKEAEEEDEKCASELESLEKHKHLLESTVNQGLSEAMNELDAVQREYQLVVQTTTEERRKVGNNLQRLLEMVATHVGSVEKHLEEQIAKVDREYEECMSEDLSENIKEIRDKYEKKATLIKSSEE
UniProt Q9UFN0: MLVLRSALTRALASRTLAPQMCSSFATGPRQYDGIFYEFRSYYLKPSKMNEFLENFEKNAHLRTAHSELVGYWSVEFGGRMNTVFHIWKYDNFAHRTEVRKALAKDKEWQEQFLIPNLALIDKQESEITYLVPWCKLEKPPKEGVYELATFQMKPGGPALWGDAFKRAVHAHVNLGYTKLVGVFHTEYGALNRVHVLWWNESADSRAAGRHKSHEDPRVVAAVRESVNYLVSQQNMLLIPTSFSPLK
UniProt Q12968: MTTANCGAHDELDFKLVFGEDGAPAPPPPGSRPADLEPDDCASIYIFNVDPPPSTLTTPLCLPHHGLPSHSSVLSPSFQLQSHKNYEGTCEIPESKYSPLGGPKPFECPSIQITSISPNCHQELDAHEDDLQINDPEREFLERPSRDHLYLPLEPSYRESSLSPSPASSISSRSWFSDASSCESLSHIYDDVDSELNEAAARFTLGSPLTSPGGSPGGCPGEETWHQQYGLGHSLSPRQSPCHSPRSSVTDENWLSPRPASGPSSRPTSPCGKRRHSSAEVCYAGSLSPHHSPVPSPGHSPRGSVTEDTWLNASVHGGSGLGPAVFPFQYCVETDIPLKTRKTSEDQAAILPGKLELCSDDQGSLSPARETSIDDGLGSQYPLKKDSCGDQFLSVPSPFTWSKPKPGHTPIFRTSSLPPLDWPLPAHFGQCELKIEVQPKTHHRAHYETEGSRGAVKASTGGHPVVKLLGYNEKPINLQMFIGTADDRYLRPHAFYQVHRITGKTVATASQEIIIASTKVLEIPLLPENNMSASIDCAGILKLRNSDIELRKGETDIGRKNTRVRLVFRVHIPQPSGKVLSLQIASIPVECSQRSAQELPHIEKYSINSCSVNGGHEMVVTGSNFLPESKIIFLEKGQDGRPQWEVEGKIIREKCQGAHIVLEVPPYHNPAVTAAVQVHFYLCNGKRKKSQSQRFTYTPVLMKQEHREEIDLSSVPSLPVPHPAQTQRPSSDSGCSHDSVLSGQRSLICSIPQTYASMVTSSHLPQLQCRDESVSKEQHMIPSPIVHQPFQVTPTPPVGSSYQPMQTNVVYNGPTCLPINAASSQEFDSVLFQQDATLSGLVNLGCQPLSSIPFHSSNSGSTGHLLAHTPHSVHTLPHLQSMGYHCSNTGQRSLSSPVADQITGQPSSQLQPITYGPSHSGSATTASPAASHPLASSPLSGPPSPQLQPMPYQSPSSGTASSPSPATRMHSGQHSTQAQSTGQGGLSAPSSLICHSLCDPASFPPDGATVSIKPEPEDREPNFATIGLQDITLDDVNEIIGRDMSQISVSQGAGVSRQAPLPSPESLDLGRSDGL
UniProt O75251, whole entry, looked up: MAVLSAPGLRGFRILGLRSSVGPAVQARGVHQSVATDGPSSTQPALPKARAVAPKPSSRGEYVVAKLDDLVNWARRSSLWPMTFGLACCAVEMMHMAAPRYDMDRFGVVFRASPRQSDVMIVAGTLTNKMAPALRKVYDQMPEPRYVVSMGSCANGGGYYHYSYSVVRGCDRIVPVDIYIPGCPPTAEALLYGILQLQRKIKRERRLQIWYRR
UniProt P19404, whole entry, looked up: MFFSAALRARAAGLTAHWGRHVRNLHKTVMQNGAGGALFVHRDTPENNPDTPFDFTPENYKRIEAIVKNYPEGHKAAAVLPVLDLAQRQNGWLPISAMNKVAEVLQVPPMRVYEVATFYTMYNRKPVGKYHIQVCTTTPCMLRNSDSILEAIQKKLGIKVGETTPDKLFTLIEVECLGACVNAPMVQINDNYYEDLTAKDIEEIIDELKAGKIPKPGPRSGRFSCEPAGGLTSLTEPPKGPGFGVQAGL
UniProt Q9UGV2: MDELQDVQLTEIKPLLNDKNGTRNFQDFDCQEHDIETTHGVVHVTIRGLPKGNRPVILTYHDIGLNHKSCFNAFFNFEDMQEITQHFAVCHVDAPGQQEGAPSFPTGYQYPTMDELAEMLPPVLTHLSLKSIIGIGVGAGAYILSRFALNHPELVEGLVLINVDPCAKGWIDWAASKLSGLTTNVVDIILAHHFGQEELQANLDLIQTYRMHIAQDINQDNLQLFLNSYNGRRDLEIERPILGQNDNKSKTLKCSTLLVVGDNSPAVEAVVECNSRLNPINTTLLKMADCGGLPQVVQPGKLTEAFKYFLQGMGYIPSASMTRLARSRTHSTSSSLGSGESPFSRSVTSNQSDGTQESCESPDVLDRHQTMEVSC
UniProt P49821, whole entry, looked up: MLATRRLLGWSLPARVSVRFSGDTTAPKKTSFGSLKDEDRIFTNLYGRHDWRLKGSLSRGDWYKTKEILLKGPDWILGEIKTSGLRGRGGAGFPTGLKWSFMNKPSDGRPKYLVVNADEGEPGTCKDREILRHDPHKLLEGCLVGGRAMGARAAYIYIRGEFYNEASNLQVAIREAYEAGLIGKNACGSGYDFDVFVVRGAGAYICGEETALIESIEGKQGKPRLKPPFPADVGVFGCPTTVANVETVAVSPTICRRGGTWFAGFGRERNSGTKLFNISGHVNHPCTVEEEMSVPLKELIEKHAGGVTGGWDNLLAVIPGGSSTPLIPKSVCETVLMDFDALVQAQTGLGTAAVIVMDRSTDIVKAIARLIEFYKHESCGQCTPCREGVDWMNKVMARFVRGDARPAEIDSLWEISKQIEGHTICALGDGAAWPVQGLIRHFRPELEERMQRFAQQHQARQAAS
UniProt O43676, whole entry, looked up: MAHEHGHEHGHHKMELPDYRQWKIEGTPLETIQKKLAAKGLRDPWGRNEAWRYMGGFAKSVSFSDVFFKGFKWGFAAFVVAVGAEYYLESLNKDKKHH
UniProt Q00653: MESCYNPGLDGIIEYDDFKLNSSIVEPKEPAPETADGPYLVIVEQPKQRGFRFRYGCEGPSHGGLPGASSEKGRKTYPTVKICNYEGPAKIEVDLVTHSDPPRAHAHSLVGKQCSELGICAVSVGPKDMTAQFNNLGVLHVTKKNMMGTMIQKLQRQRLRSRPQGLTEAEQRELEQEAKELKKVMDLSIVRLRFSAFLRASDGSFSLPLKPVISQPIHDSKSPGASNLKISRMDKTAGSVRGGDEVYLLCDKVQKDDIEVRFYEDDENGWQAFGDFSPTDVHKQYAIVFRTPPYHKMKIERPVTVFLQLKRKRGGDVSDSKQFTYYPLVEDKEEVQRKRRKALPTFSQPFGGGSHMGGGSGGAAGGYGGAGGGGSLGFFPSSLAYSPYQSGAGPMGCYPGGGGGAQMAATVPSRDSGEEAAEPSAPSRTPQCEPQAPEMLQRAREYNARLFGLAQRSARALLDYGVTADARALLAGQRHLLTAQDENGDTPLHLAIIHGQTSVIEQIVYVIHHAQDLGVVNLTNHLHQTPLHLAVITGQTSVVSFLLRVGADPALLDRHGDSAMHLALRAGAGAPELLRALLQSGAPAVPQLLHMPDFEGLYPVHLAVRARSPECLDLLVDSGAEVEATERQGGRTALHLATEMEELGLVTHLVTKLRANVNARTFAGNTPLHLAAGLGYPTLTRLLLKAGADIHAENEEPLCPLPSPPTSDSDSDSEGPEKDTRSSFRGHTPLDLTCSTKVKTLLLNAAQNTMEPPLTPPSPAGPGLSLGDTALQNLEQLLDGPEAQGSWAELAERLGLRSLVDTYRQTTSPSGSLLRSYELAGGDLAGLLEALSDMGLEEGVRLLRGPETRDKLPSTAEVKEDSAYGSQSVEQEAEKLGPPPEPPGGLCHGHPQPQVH
UniProt O75323: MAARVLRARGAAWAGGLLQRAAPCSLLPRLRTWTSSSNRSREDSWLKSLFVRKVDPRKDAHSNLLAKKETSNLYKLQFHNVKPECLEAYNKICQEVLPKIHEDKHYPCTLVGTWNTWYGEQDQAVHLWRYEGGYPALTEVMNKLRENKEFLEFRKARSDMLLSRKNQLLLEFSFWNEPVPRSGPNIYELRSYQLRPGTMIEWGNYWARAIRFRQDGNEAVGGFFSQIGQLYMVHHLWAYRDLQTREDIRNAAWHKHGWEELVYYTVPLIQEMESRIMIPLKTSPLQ

How the values were obtained:
Test in all cases: log2 fold change, soluble protein after heating vs DMSO (PISA); higher = thermal stabilisation; K562 lysate, 10 uM; active = over 0.2 and 3.5 SD of the protein, either way, in both replicates (recomputed)
[1] = compound: CS(=O)(=O)CCNCc1ccc(-c2ccc3ncnc(Nc4ccc(OCc5cccc(F)c5)c(Cl)c4)c3c2)o1 [lapatinib]
Procedure, shortened: (§1)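 The values are log-two fold changes in thermal stability compared with solvent controls and come from duplicates. They were obtained by TMTpro 16plex LC-MS/MS, with channel sums equalised, on the supernatant after 21,000xg for 90 min. That supernatant came from crude K562 extract at 1 mg/mL protein treated with 10 μM compound for 30 min, heated for 3 min across 48°C-58°C, pooled and brought to 0.5% NP-40 at 4°C.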

[2] = compound: CS(=O)(=O)N1CCN(Cc2cc3nc(-c4cccc5[nH]ncc45)nc(N4CCOCC4)c3s2)CC1 [pictilisib]
Procedure, shortened: as §1

[3] = compound: C[C@@H](Oc1cc(-c2cnn(C3CCNCC3)c2)cnc1N)c1c(Cl)ccc(F)c1Cl [crizotinib]
Procedure, shortened: as §1

[4] = compound: C[C@H](C1=CC=C(C=C1)C(=O)NC2=C3C=CNC3=NC=C2)N
Procedure, shortened: as §1

[5] = compound: C[C@H](Nc1ncnc2nc[nH]c12)c1cc2cccc(Cl)c2c(=O)n1-c1ccccc1 [duvelisib]
Procedure, shortened: as §1

[6] = compound: Cc1cc(Nc2cc(CN3CCOCC3)c3nc(C)c(Cc4ccc(Cl)cc4F)n3n2)n[nH]1 [gandotinib]
Procedure, shortened: as §1

[7] = compound: Cc1cc(Nc2cc(N3CCN(C)CC3)nc(Sc3ccc(NC(=O)C4CC4)cc3)n2)n[nH]1 [tozasertib]
Procedure, shortened: as §1

[8] = compound: Cc1ccc(-n2nc(C(C)(C)C)cc2NC(=O)Nc2ccc(OCCN3CCOCC3)c3ccccc23)cc1 [doramapimod]
Procedure, shortened: as §1

[9] = compound: Cc1ccc(NC(=O)c2ccc(CN3CC[C@H](N(C)C)C3)c(C(F)(F)F)c2)cc1Nc1nccc(-c2cncnc2)n1 [bafetinib]
Procedure, shortened: as §1

[10] = compound: Cc1cccc(CC(=O)N2CCc3c2ccc(-c2cn(C)c4ncnc(N)c24)c3F)n1
Procedure, shortened: as §1

[11] = compound: Cc1cn(-c2cc(NC(=O)c3ccc(C)c(Nc4nccc(-c5cccnc5)n4)c3)cc(C(F)(F)F)c2)cn1 [nilotinib]
Procedure, shortened: as §1

[12] = compound: Cc1nc(Nc2n[nH]c3c2CN(C(=O)N[C@H](CN(C)C)c2ccccc2)C3(C)C)c2sccc2n1
Procedure, shortened: as §1

[13] = compound: Cc1nc(Nc2ncc(C(=O)Nc3c(C)cccc3Cl)s2)cc(N2CCN(CCO)CC2)n1 [dasatinib]
Procedure, shortened: as §1

[14] = compound: Cc1ncc(-c2ccnc(Nc3ccc(S(C)(=O)=O)cc3)n2)n1C(C)C
Procedure, shortened: as §1

[15] = compound: Cn1cc(-c2ccc3c(c2)CCN3C(=O)Cc2cccc(C(F)(F)F)c2)c2c(N)ncnc21
Procedure, shortened: as §1

[16] = compound: Cn1cc(CNCC2CCN(c3ncc(C(=O)NO)cn3)CC2)c2ccccc21 [quisinostat]
Procedure, shortened: as §1

[17] = compound: Cn1cncc1[C@@](N)(c1ccc(Cl)cc1)c1ccc2c(c1)c(-c1cccc(Cl)c1)cc(=O)n2C [tipifarnib]
Procedure, shortened: as §1

[18] = compound: NC(=O)Nc1cc(-c2cccc(F)c2)sc1C(=O)N[C@H]1CCCNC1
Procedure, shortened: as §1

[19] = compound: NC(=O)c1cnc(N[C@@H]2CCCC[C@@H]2N)nc1Nc1cccc(-n2nccn2)c1
Procedure, shortened: as §1

[20] = compound: NC1(c2ccc(-c3nc4ccn5c(=O)[nH]nc5c4cc3-c3ccccc3)cc2)CCC1
Procedure, shortened: as §1

Target | log2 fold change [1] | log2 fold change [2] | log2 fold change [3] | log2 fold change [4] | log2 fold change [5] | log2 fold change [6] | log2 fold change [7] | log2 fold change [8] | log2 fold change [9] | log2 fold change [10] | log2 fold change [11] | log2 fold change [12] | log2 fold change [13] | log2 fold change [14] | log2 fold change [15] | log2 fold change [16] | log2 fold change [17] | log2 fold change [18] | log2 fold change [19] | log2 fold change [20]
NDUFA12 (UniProt Q9UI09) | inactive: -0.083 | inactive: -0.035 | inactive: -0.015 | inactive: -0.057 | inactive: 0.051 | inactive: 0.024 | inactive: 0.019 | inactive: -0.001 | inactive: 0.062 | inactive: 0.054 | inactive: -0.022 | inactive: -0.031 | inactive: -0.055 | inactive: -0.028 | inactive: -0.034 | inactive: -0.033 | inactive: -0.053 | inactive: 0.04 | inactive: -0.041 | inactive: 0.029
NEDD4L (UniProt Q96PU5) | inactive: -0.026 | inactive: -0.026 | inactive: -0.026 | inactive: -0.024 | inactive: -0.04 | inactive: -0.056 | inactive: -0.001 | inactive: 0.097 | inactive: 0.005 | inactive: 0.024 | inactive: 0.033 | inactive: 0.042 | inactive: -0.04 | inactive: -0.037 | inactive: 0.023 | inactive: -0.009 | inactive: 0.025 | inactive: 0.026 | inactive: 0.022 | inactive: 0.073
NFAT5 isoform 5 (UniProt O94916) | inactive: 0.033 | inactive: -0.002 | inactive: 0.053 | inactive: -0.053 | inactive: -0.041 | inactive: 0.045 | inactive: -0.039 | inactive: 0.007 | inactive: -0.041 | inactive: 0.008 | inactive: -0.012 | inactive: -0.07 | inactive: 0.008 | inactive: 0.046 | inactive: -0.014 | inactive: -0.172 | inactive: -0.032 | inactive: 0.031 | inactive: 0.018 | inactive: 0.039
NDUFA2 (UniProt O43678) | inactive: 0.016 | inactive: 0.012 | inactive: 0.025 | inactive: 0.048 | inactive: -0.044 | inactive: 0.015 | inactive: 0.051 | inactive: 0.006 | inactive: -0.033 | inactive: -0.046 | inactive: 0.073 | inactive: 0.005 | inactive: -0.012 | inactive: -0.013 | inactive: -0.04 | inactive: 0.092 | inactive: 0.007 | inactive: -0.048 | inactive: 0.019 | inactive: 0.031
NDUFAF4 (UniProt Q9P032) | inactive: -0.029 | inactive: -0.026 | inactive: -0.054 | inactive: -0.013 | inactive: -0.005 | inactive: -0.037 | inactive: 0.041 | inactive: 0.009 | inactive: -0.058 | inactive: 0.001 | inactive: 0 | inactive: -0.035 | inactive: -0.01 | inactive: -0.021 | inactive: 0.026 | inactive: -0.03 | inactive: -0.003 | inactive: 0.032 | inactive: 0.005 | inactive: -0.011
NDC80 (UniProt O14777) | inactive: -0.04 | inactive: 0.006 | inactive: -0.028 | inactive: 0.019 | inactive: -0.006 | inactive: -0.121 | inactive: 0.003 | inactive: -0.002 | inactive: 0.042 | inactive: 0.012 | inactive: -0.008 | inactive: 0.005 | inactive: -0.05 | inactive: -0.006 | inactive: 0.025 | inactive: -0.022 | inactive: 0 | inactive: -0.002 | inactive: 0.007 | inactive: 0.002
NIPSNAP3A (UniProt Q9UFN0) | inactive: -0.007 | inactive: -0.031 | inactive: 0.021 | active: 0.466 | inactive: 0.03 | inactive: -0.197 | inactive: -0.011 | inactive: -0.029 | inactive: 0.061 | active: -0.276 | inactive: 0.001 | inactive: 0.016 | inactive: 0.028 | inactive: 0.008 | inactive: -0.054 | inactive: -0.053 | inactive: 0.015 | inactive: 0.007 | inactive: -0.052 | inactive: -0.025
NFATC3 (UniProt Q12968) | inactive: 0.049 | inactive: 0.014 | inactive: -0.011 | inactive: -0.01 | inactive: -0.004 | inactive: 0.014 | inactive: -0.034 | inactive: -0.041 | inactive: -0.012 | inactive: 0.003 | inactive: -0.022 | inactive: 0.023 | inactive: -0.067 | inactive: -0.002 | inactive: 0.041 | inactive: -0.096 | inactive: -0.007 | inactive: 0.04 | inactive: 0.027 | inactive: 0.011
NDUFS7 (UniProt O75251) | inactive: -0.021 | inactive: -0.031 | inactive: -0.038 | inactive: -0.012 | inactive: 0.024 | inactive: 0.009 | inactive: 0.038 | inactive: 0.027 | inactive: -0.065 | inactive: 0.036 | inactive: 0.027 | inactive: -0.022 | inactive: -0.033 | inactive: -0.015 | inactive: 0.027 | inactive: -0.014 | inactive: -0.025 | inactive: -0.062 | inactive: 0.026 | inactive: -0.017
NDUFV2 (UniProt P19404) | inactive: 0.013 | inactive: -0.036 | inactive: 0.01 | inactive: 0.029 | inactive: -0.007 | inactive: -0.013 | inactive: -0.004 | inactive: -0.017 | inactive: 0.001 | inactive: 0.011 | inactive: -0.019 | inactive: -0.006 | inactive: 0.022 | inactive: -0.011 | inactive: 0.028 | inactive: -0.006 | inactive: 0.02 | inactive: -0.002 | inactive: 0.016 | inactive: -0.023
NFXL1 (UniProt Q6ZNB6) | inactive: -0.011 | inactive: -0.068 | inactive: 0.042 | inactive: -0.069 | inactive: 0.048 | inactive: -0.009 | inactive: -0.011 | inactive: 0.009 | inactive: 0.127 | inactive: 0.107 | inactive: -0.012 | inactive: 0.038 | inactive: -0.065 | inactive: 0.074 | inactive: -0.074 | inactive: 0.143 | inactive: -0.055 | inactive: -0.087 | inactive: -0.025 | inactive: 0.022
NDRG3 (UniProt Q9UGV2) | inactive: -0.011 | inactive: -0.005 | inactive: -0.011 | inactive: 0.054 | inactive: 0.034 | inactive: -0.024 | inactive: -0.007 | inactive: -0.017 | inactive: -0.005 | inactive: -0.044 | inactive: 0.027 | inactive: 0.038 | inactive: -0.027 | inactive: 0.03 | inactive: -0.026 | inactive: 0.004 | inactive: -0.026 | inactive: -0.009 | inactive: -0.005 | inactive: -0.02
NDUFV1 (UniProt P49821) | inactive: -0.013 | inactive: -0.016 | inactive: -0.012 | inactive: -0.057 | inactive: 0.003 | inactive: 0.028 | inactive: 0.043 | inactive: 0.014 | inactive: -0.003 | inactive: 0.023 | inactive: -0.028 | inactive: 0.026 | inactive: -0.001 | inactive: -0.022 | inactive: -0.044 | inactive: 0.054 | inactive: 0.024 | inactive: -0.006 | inactive: -0.011 | inactive: -0.014
NDUFB3 (UniProt O43676) | inactive: -0.051 | inactive: 0.009 | inactive: 0.043 | inactive: -0.001 | inactive: 0.028 | inactive: -0.042 | inactive: 0.042 | inactive: -0.012 | inactive: 0.065 | inactive: -0.055 | inactive: -0.01 | inactive: 0.011 | inactive: 0.009 | inactive: -0.061 | inactive: 0.044 | inactive: -0.001 | inactive: 0.036 | inactive: 0.009 | inactive: -0.036 | inactive: 0.067
NFKB2 (UniProt Q00653) | inactive: 0.03 | inactive: -0.001 | inactive: -0.053 | inactive: -0.038 | inactive: -0.036 | inactive: 0.013 | inactive: 0.026 | inactive: 0.031 | inactive: -0.017 | inactive: 0.027 | inactive: 0.009 | inactive: -0.005 | inactive: 0.005 | inactive: 0.033 | inactive: -0.001 | inactive: -0.095 | inactive: -0.04 | inactive: 0.046 | inactive: 0.029 | inactive: -0.021
NIPSNAP2 (UniProt O75323) | inactive: 0.015 | inactive: -0.06 | inactive: -0.01 | inactive: -0.019 | inactive: -0.168 | inactive: -0.034 | inactive: 0.007 | inactive: -0.103 | inactive: 0.004 | inactive: 0.014 | inactive: -0.039 | inactive: -0.006 | inactive: -0.016 | inactive: -0.084 | inactive: 0.01 | inactive: -0.01 | inactive: -0.009 | inactive: 0.026 | inactive: 0.009 | inactive: -0.068

Single records, from the list above. Order of values: log2 fold change [1]	log2 fold change [2]	log2 fold change [3]	log2 fold change [4]	log2 fold change [5]	log2 fold change [6]	log2 fold change [7]	log2 fold change [8]	log2 fold change [9]	log2 fold change [10]	log2 fold change [11]	log2 fold change [12]	log2 fold change [13]	log2 fold change [14]	log2 fold change [15]	log2 fold change [16]	log2 fold change [17]	log2 fold change [18]	log2 fold change [19]	log2 fold change [20]
NEDD4L (UniProt Q96PU5) in the list: inactive: -0.026	inactive: -0.026	inactive: -0.026	inactive: -0.024	inactive: -0.04	inactive: -0.056	inactive: -0.001	inactive: 0.097	inactive: 0.005	inactive: 0.024	inactive: 0.033	inactive: 0.042	inactive: -0.04	inactive: -0.037	inactive: 0.023	inactive: -0.009	inactive: 0.025	inactive: 0.026	inactive: 0.022	inactive: 0.073
NDUFS7 (UniProt O75251) in the list: inactive: -0.021	inactive: -0.031	inactive: -0.038	inactive: -0.012	inactive: 0.024	inactive: 0.009	inactive: 0.038	inactive: 0.027	inactive: -0.065	inactive: 0.036	inactive: 0.027	inactive: -0.022	inactive: -0.033	inactive: -0.015	inactive: 0.027	inactive: -0.014	inactive: -0.025	inactive: -0.062	inactive: 0.026	inactive: -0.017
